This is an account of results in publication PMC9616960.

No constants are given. Whether binding was seen depends on the method and setting. In cells and extracts the contact can be indirect. A yes stands for co-enrichment or nearness to the bait. Other partners may have been found. For part of these data: Tags and fused reporters may be left off the sequences shown.

For assay [1], the target named is T1, Podocin (mouse (endogenous in mouse glomeruli)) (UniProt Q91X05).
T1 sequence: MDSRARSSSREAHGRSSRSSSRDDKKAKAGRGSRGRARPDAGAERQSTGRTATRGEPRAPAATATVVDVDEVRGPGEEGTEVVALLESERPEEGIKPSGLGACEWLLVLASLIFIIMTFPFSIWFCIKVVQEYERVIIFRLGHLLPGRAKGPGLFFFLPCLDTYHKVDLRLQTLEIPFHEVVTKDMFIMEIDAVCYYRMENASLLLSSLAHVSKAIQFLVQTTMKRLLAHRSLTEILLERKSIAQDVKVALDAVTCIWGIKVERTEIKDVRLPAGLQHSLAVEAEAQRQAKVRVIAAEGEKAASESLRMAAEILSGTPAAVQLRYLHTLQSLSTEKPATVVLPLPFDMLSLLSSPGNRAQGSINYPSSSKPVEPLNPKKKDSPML
Briefly: affinity purification with mass spectrometry; two anti-Podocin ABs immobilised on magnetic beads, two hours with CL-47 or CL-91 solubilisates of glomerular membrane fractions of wildtype mice; control: Podocin knockout mice; eluates by nano-LC-MS/MS; specific: tnR >0.25 with both ABs in either of two solubilisation conditions.

In assay [2] the target is T2, Neph1 (not stated (endogenous in glomeruli of rat or mouse)) (UniProt Q6X936).
T2 sequence: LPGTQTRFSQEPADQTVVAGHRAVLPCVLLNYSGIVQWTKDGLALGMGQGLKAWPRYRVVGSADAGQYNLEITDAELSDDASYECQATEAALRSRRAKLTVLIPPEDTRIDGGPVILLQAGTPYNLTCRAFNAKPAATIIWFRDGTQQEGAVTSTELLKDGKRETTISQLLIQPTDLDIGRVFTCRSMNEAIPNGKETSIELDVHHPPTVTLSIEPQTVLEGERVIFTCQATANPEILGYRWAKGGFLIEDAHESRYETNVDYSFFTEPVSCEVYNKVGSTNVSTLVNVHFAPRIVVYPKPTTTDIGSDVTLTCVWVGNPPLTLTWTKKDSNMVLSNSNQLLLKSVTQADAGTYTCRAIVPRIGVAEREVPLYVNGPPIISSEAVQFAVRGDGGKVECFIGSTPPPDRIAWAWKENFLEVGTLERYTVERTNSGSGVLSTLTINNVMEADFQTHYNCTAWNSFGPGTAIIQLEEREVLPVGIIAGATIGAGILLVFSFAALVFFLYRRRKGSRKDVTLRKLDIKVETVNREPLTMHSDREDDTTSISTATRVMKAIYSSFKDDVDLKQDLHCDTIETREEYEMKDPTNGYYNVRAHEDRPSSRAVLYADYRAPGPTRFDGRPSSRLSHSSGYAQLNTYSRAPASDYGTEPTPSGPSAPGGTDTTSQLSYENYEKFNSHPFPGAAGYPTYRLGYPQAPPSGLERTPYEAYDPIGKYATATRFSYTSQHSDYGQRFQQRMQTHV
Briefly: affinity purification with mass spectrometry; three anti-Nephrin/Neph1 ABs immobilised on magnetic beads, two hours with CL-47 or CL-91 solubilisates of glomerular membrane fractions; eluates by nano-LC-MS/MS; specific: tnR >=0.2 against three target-unrelated ABs/IgG, in at least two anti-Nephrin/Neph1 APs.

Assay [3] has as its target T3, Nephrin (not stated (endogenous in glomeruli of rat or mouse)) (UniProt Q9R044).
T3 sequence: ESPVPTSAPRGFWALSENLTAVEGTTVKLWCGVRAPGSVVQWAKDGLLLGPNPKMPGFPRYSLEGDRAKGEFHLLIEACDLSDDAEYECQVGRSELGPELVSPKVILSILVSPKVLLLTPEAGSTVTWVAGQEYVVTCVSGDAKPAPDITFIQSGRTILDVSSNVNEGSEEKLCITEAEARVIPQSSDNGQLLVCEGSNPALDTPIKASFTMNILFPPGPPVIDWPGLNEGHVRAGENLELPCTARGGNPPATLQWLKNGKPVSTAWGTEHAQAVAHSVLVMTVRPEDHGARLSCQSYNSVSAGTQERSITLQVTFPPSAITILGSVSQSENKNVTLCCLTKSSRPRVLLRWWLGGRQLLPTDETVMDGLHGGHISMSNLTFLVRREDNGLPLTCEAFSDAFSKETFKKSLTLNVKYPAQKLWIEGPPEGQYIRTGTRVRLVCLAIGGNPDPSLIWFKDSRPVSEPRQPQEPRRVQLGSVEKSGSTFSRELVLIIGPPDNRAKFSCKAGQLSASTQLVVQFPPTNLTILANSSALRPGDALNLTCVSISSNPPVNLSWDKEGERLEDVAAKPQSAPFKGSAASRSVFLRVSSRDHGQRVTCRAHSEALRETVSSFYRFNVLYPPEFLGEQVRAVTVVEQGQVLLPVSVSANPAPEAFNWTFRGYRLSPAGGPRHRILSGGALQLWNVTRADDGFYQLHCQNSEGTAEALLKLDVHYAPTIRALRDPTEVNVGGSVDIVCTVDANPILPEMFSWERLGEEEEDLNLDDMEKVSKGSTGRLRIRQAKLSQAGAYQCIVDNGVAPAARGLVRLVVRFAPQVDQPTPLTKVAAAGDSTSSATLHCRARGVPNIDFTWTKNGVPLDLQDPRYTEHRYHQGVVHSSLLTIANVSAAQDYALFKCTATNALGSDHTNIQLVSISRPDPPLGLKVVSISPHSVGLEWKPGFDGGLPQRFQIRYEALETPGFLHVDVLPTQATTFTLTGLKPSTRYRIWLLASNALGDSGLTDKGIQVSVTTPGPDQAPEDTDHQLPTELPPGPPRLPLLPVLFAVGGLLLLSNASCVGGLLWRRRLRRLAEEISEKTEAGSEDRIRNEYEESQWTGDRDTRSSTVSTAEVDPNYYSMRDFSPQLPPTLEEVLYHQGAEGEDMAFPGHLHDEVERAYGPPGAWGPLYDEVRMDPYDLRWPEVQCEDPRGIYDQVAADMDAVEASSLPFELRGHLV
Described as above.

B1: R-PTP-O (protein, UniProt E9Q612 30-1226)
chain: FHVAVQDDNNIVVSLEASDIVSPASVYVVRVAGESKNYFFEFEEFNSTLPPPVVFKATYHGLYYIITLVVVNGNVVTKPSRSITVLTKPLPVTSVSIYDYKPSPETGVLFEIHYPEKYNVFSRVNISYWEGRDFRTMLYKDFFKGKTVFNHWLPGLCYSNITFQLVSEATFNKSTLVEYSGVSHEPKQHRTAPYPPRNISVRFVNLNKNNWEEPSGSFPEDSFIKPPQDSIGRDRRFHFPEETPETPPSNVSSGSPPSNVSSAWPDPNSTDYESTSQPFWWDSASAAPENEEDFVSALPADYDTETTLDRTEKPTADPFSAFPVQMTLSWLPPKPPTAFDGFNILIEREENFTDYLTVDEEAHEFVAELKEPGKYKLSVTTFSSSGACETRKSQSAKSLSFYISPTGEWIEELTEKPQHVSVHVLSSTTALMSWTSSQENYNSTIVSVVSLTCQKQKESQRLEKQYCTQVNSSKPVIENLVPGAQYQVVMYLRKGPLIGPPSDPVTFAIVPTGIKDLMLYPLGPTAVVLSWTRPILGVFRKYVVEMFYFNPTTMTSEWTTYYEIAATVSLTASVRIASLLPAWYYNFRVTMVTWGDPELSCCDSSTISFITAPVAPEITSVEYFNSLLYISWTYGDATTDLSHSRMLHWMVVAEGRKKIKKSVTRNVMTAILSLPPGDIYNLSVTACTERGSNTSLPRLVKLEPAPPKSLFAVNKTQTSVTLLWVEEGVADFFEVFCQQLGSGHNGKLQEPVAVSSHVVTISSLLPATAYNCSVTSFSHDTPSVPTFIAVSTMVTEVNPNVVVISVLAILSTLLIGLLLVTLVILRKKHLQMARECGAGTFVNFASLEREGKLPYSWRRSVFALLTLLPSCLWTDYLLAFYINPWSKNGLKKRKLTNPVQLDDFDSYIKDMAKDSDYKFSLQFEELKLIGLDIPHFAADLPLNRCKNRYTNILPYDFSRVRLVSMNEEEGADYINANYIPGYNSPQEYIATQGPLPETRNDFWKMVLQQKSHIIVMLTQCNEKRRVKCDHYWPFTEEPIAYGDITVEMVSEEEEEDWASRHFRINYADEAQDVMHFNYTAWPDHGVPPANAAESILQFVFTVRQQAAKSKGPMIIHCSAGVGRTGTFIALDRLLQHIRDHEFVDILGLVSEMRSYRMSMVQTEEQYIFIHQCVQLMWLRKKQQFCISDVIYENVSKS
Turning to B1, the binding result in assay [1] is given as “binds”.

B2: tyrosine kinase Mer (protein, UniProt Q60805 19-994)
chain: GGTAEKWEETELDQLFSGPLPGRLPVNHRPFSAPHSSRDQLPPPQTGRSHPAHTAAPQVTSTASKLLPPVAFNHTIGHIVLSEHKNVKFNCSINIPNTYQETAGISWWKDGKELLGAHHSITQFYPDEEGVSIIALFSIASVQRSDNGSYFCKMKVNNREIVSDPIYVEVQGLPYFIKQPESVNVTRNTAFNLTCQAVGPPEPVNIFWVQNSSRVNEKPERSPSVLTVPGLTETAVFSCEAHNDKGLTVSKGVHINIKVIPSPPTEVHILNSTAHSILVSWVPGFDGYSPLQNCSIQVKEADRLSNGSVMVFNTSASPHLYEIQQLQALANYSIAVSCRNEIGWSAVSPWILASTTEGAPSVAPLNITVFLNESNNILDIRWTKPPIKRQDGELVGYRISHVWESAGTYKELSEEVSQNGSWAQIPVQIHNATCTVRIAAITKGGIGPFSEPVNIIIPEHSKVDYAPSSTPAPGNTDSMFIILGCFCGFILIGLILCISLALRRRVQETKFGGAFSEEDSQLVVNYRAKKSFCRRAIELTLQSLGVSEELQNKLEDVVIDRNLLVLGKVLGEGEFGSVMEGNLKQEDGTSQKVAVKTMKLDNFSQREIEEFLSEAACMKDFNHPNVIRLLGVCIELSSQGIPKPMVILPFMKYGDLHTFLLYSRLNTGPKYIHLQTLLKFMMDIAQGMEYLSNRNFLHRDLAARNCMLRDDMTVCVADFGLSKKIYSGDYYRQGRIAKMPVKWIAIESLADRVYTSKSDVWAFGVTMWEITTRGMTPYPGVQNHEMYDYLLHGHRLKQPEDCLDELYDIMYSCWSADPLDRPTFSVLRLQLEKLSESLPDAQDKESIIYINTQLLESCEGIANGPSLTGLDMNIDPDSIIASCTPGAAVSVVTAEVHENNLREERYILNGGNEEWEDVSSTPFAAVTPEKDGVLPEDRLTKNGVSWSHHSTLPLGSPSPDELLFVDDSLEDSEVLM
On to B2, for which the binding result in assay [1] is given as “binds”.

B3: N-acetyl-glucosaminyl-transferase V (protein, UniProt Q08834 1-740)
chain: MAFFSPWKLSSQKLGFFLVTFGFIWGMMLLHFTIQQRTQPESSSMLREQILDLSKRYIKALAEENRNVVDGPYAGVMTAYDLKKTLAVLLDNILQRIGKLESKVDNLVNGTGANSTNSTTAVPSLVSLEKINVADIINGVQEKCVLPPMDGYPHCEGKIKWMKDMWRSDPCYADYGVDGTSCSFFIYLSEVENWCPRLPWRAKNPYEEADHNSLAEIRTDFNILYGMMKKHEEFRWMRLRIRRMADAWIQAIKSLAEKQNLEKRKRKKILVHLGLLTKESGFKIAETAFSGGPLGELVQWSDLITSLYLLGHDIRISASLAELKEIMKKVVGNRSGCPTVGDRIVELIYIDIVGLAQFKKTLGPSWVHYQCMLRVLDSFGTEPEFNHASYAQSKGHKTPWGKWNLNPQQFYTMFPHTPDNSFLGFVVEQHLNSSDIHHINEIKRQNQSLVYGKVDSFWKNKKIYLDIIHTYMEVHATVYGSSTKNIPSYVKNHGILSGRDLQFLLRETKLFVGLGFPYEGPAPLEAIANGCAFLNPKFNPPKSSKNTDFFIGKPTLRELTSQHPYAEVFIGRPHVWTVDLNNREEVEDAVKAILNQKIEPYMPYEFTCEGMLQRINAFIEKQDFCHGQVMWPPLSALQVKLAEPGQSCKQVCQESQLICEPSFFQHLNKEKDLLKYKVICQSSELYKDILVPSFYPKSKHCVFQGDLLLFSCAGAHPTHQRICPCRDFIKGQVALCKDCL
B3: the binding entry in assay [2] and in assay [3] was “binds” each time.

B4: Erlin-2 (protein, UniProt B5DEH2 1-339)
chain: MAQLGAVVAVASSFFCASLFSAVHKIEEGHIGVYYRGGALLTSTSGPGFHLMLPFITSYKSVQTTLQTDEVKNVPCGTSGGVMIYFDRIEVVNFLVPHAVYDIVKNYTADYDKALIFNKIHHELNQFCSVHTLQEVYIELFDQIDENLKLALQQDLTSMAPGLVIQAVRVTKPNIPEAIRRNYELMESEKTKLLIAAQKQKVVEKEAETERKKALIEAEKVAQVAEITYGQKVMEKETEKKISEIEDAAFLAREKAKADAECYTALKIAEANKLKLTPEYLQLMKYKAIASNSKIYFGKDIPNMFMDSAGGLGKQSEGLSDKLGFGLEDEPLETATKDN
As to B4, the binding entry in assay [2] and in assay [3] was “binds” each time.
